This note sets out measurements from paper PMC11423193.

Results are given in words; binding and its absence hold for the method and conditions named. In cells and extracts the contact can be indirect. Some entries that bind do so weakly or less than the wild type. Tags and fused reporters may be left off the sequences shown.

Experiment [1] addresses T1, HDAC7-Flag (UniProt Q8WUI4).
T1 sequence: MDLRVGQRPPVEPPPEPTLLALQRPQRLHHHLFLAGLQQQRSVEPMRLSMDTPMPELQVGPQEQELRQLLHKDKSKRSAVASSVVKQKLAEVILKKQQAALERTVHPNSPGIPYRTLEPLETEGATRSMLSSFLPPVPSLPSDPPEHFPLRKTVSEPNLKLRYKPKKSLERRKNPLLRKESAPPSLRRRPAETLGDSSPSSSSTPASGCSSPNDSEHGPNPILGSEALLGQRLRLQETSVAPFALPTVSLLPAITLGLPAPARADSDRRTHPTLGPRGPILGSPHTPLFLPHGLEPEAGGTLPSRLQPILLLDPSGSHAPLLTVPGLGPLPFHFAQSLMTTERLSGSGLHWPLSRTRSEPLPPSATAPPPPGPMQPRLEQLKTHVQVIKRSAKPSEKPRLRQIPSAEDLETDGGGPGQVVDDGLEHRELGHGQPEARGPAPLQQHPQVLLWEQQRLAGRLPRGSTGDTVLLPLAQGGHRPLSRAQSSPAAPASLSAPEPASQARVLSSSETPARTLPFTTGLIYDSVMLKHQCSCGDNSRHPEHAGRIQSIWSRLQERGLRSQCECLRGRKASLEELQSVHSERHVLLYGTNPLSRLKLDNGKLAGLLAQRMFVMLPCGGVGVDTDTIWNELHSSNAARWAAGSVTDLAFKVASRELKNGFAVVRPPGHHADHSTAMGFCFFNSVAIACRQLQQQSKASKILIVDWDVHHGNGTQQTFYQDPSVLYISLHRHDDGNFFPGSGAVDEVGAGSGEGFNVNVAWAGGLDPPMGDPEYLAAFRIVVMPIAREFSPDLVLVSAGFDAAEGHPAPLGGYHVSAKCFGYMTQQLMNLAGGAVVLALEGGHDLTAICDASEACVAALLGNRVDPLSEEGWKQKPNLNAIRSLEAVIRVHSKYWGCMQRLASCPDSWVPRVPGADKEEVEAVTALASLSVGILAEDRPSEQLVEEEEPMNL
The experiment can be described thus: co-IP; 293T cells transfected with HDAC7-Flag, without compound or treated with TMP269 (5 µM) for 12 h; RIPA lysis buffer; Flag beads overnight at 4 °C; immunoblot with anti-Flag, anti-TAK1, anti-TRAF6.

Experiment [2] deals with T1, HDAC7-Flag. The experiment can be described thus: condition: only cells treated with B4 (5 µM) for 12 h; co-IP; 293T cells transfected with HDAC7-Flag and treated with B4 (5 µM) for 12 h; RIPA lysis buffer; Flag beads overnight at 4 °C; immunoblot with anti-Flag, anti-TAK1, anti-TRAF6.

B1: TGFβ-activated kinase 1 (protein, UniProt O43318 1-606)
chain: MSTASAASSSSSSSAGEMIEAPSQVLNFEEIDYKEIEVEEVVGRGAFGVVCKAKWRAKDVAIKQIESESERKAFIVELRQLSRVNHPNIVKLYGACLNPVCLVMEYAEGGSLYNVLHGAEPLPYYTAAHAMSWCLQCSQGVAYLHSMQPKALIHRDLKPPNLLLVAGGTVLKICDFGTACDIQTHMTNNKGSAAWMAPEVFEGSNYSEKCDVFSWGIILWEVITRRKPFDEIGGPAFRIMWAVHNGTRPPLIKNLPKPIESLMTRCWSKDPSQRPSMEEIVKIMTHLMRYFPGADEPLQYPCQYSDEGQSNSATSTGSFMDIASTNTSNKSDTNMEQVPATNDTIKRLESKLLKNQAKQQSESGRLSLGASRGSSVESLPPTSEGKRMSADMSEIEARIAATTAYSKPKRGHRKTASFGNILDVPEIVISGNGQPRRRSIQDLTVTGTEPGQVSSRSSSPSVRMITTSGPTSEKPTRSHPWTPDDSTDTNGSDNSIPMAYLTLDHQLQPLAPCPNSKESMAVFEQHCKMAQEYMKVQTEIALLLQRKQELVAELDQDEKDQQNTSRLVQEHKKLLDENKSLSTYYQQCKKQLEVIRSQQQKRQGTS
Turning to B1, the binding result in experiment [1] is “binds”; in experiment [2] it was “no binding”.
